Test results: publication PMC6433719
These are yes or no findings as the source states them, for the method shown. Binding calls can cover weak binding; strength is not graded here.

Assays:
[1] = biological target: T1, AtPYL12 in pBDGAL4 (Arabidopsis thaliana) (UniProt Q9FJ49); assay: two-hybrid; PP2C fused to the GAL4 AD (prey), PYL fused to the GAL4 BD (bait), yeast AH109; growth on -W/-L/-H/-A with 50 μM ABA, 3 days at 30°C
T1 sequence: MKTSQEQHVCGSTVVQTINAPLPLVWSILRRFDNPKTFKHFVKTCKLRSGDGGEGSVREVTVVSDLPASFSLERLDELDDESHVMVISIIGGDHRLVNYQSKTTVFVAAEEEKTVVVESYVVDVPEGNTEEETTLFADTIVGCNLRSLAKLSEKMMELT

[2] = biological target: T2, AtPYL9 in pBDGAL4 (Arabidopsis thaliana) (UniProt Q84MC7); assay: as above
T2 sequence: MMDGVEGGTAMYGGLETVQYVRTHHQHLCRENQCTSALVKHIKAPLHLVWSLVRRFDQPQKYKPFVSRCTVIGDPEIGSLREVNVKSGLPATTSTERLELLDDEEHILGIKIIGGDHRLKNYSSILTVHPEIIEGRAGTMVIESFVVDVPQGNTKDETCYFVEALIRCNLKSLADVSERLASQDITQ

[3] = biological target: T3, AtPYL13 in pBDGAL4 (Arabidopsis thaliana) (UniProt Q9SN51); assay: as above
T3 sequence: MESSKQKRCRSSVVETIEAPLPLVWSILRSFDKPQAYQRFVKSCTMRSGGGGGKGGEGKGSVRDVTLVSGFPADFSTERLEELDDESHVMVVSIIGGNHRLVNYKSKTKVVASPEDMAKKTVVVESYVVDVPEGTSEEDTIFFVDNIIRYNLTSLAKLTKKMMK

[4] = biological target: T4, AtPYL6 in pBDGAL4 (Arabidopsis thaliana) (UniProt Q8S8E3); assay: as above
T4 sequence: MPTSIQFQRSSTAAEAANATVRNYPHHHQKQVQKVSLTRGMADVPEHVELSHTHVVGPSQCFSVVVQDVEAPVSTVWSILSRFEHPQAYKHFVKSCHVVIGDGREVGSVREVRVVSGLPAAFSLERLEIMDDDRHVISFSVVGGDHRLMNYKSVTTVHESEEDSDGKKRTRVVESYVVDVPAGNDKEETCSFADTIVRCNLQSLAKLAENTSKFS

[5] = biological target: T5, AtPYL11 in pBDGAL4 (Arabidopsis thaliana) (UniProt Q9FJ50); assay: as above
T5 sequence: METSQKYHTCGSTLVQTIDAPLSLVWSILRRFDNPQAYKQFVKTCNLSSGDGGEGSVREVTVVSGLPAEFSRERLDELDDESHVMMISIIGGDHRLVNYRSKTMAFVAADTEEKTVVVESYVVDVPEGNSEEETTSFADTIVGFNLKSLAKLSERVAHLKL

[6] = biological target: T6, AtPYL7 in pBDGAL4 (Arabidopsis thaliana) (UniProt Q1ECF1); assay: as above
T6 sequence: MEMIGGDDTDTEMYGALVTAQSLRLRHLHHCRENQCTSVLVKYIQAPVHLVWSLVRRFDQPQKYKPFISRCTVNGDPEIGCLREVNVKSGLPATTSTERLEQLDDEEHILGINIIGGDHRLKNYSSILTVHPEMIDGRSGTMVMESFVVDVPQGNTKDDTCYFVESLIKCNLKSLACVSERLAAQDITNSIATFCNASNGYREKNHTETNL

[7] = biological target: T7, AtPYL8 in pBDGAL4 (Arabidopsis thaliana) (UniProt Q9FGM1); assay: as above
T7 sequence: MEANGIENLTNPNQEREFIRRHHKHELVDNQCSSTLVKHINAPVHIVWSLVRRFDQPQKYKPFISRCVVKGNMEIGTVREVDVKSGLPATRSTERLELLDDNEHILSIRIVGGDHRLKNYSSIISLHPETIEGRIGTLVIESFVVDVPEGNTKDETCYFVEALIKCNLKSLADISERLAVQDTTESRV

[8] = biological target: T8, AtSnRK2.6 cloned in pGBKT7 (Arabidopsis thaliana) (UniProt Q940H6); assay: two-hybrid; PP2C fused to the GAL4 AD (prey), SnRK2 in pGBKT7 (bait), yeast AH109; growth on selective media -W/-L/-H/-A, 3 days at 30°C; ABA not mentioned for these panels (Figure 5D-F)
T8 sequence: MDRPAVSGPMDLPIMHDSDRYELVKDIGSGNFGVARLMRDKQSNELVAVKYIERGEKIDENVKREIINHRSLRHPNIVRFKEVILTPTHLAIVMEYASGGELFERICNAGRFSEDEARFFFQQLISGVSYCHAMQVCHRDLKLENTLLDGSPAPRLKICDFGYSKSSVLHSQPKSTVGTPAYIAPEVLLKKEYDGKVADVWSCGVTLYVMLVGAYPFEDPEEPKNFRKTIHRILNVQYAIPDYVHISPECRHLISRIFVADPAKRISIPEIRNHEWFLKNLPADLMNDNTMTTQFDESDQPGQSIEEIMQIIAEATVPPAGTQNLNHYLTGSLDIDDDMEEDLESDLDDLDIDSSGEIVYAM

[9] = biological target: T1, AtPYL12 in pBDGAL4 (Arabidopsis thaliana); assay: two-hybrid; PP2C fused to the GAL4 AD (prey), PYL fused to the GAL4 BD (bait), yeast AH109; growth on -W/-L/-H/-A without ABA, 3 days at 30°C
[10] = biological target: T2, AtPYL9 in pBDGAL4 (Arabidopsis thaliana); assay: as above
[11] = biological target: T3, AtPYL13 in pBDGAL4 (Arabidopsis thaliana); assay: as above
[12] = biological target: T4, AtPYL6 in pBDGAL4 (Arabidopsis thaliana); assay: as above
[13] = biological target: T5, AtPYL11 in pBDGAL4 (Arabidopsis thaliana); assay: as above
[14] = biological target: T6, AtPYL7 in pBDGAL4 (Arabidopsis thaliana); assay: as above
[15] = biological target: T7, AtPYL8 in pBDGAL4 (Arabidopsis thaliana); assay: as above

- binding [1]: binds
- binding [2]: binds
- binding [3]: binds
- binding [4]: binds
- binding [5]: binds
- binding [6]: binds
- binding [7]: binds
- binding [8]: binds
- binding [9]: binds
- binding [10]: binds
- binding [11]: binds
- binding [12]: binds weakly
- binding [13]: binds weakly
- binding [14]: binds
- binding [15]: binds
Substance: CaHAI fused to the GAL4 activation domain (Capsicum annuum) (enzyme)
